The filed quantity is “Percent Effect” (%). How 0% and 100% were set is not recorded. Most values in the screen are low, and negative values occur. The compounds are a random part of those screened.

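Assay of Toxoplasma gondii numbers, read through their beta-galactosidase reporter with a colour substrate. Concentration: 50 µM. Higher reads as fewer parasites (inferred from which compounds were picked for retests). About 18,000 compounds were tested under these conditions; 0.94% (about 170) showed 50% or more at least once.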

structure,effect
Cn1c(=O)oc2ccc(NCc3ccco3)cc21,1.323
CN(C)[C@H]1CCCCN(C(=O)Cn2cc(Cl)cn2)C1,95.45
CCN1CC(C(=O)NCCC2=CCCCC2)CC1=O (stereo not given),-13.6
Cc1cc(F)cc(C(=O)N(C)C(C)CN)c1 (stereo not given),-5.582
COCC(C)(NC(=O)[C@H]1CCC(=O)N1)c1ccccc1 (stereo not given in full),-6.338
CCC[C@H]1CN(C(=O)c2cnc(C)nc2)C[C@@H]1N,9.153
COCCN(C(=O)c1ccn(C)c(=O)c1)C1CCCC1,-4.293
CCOc1ccc(NC(=O)[C@H](C)N(C)C)cc1CO,1.908
CCOCCC(=O)N1CCN(CC(O)C(C)(C)C)CC1 (stereo not given),19.07
N#Cc1ccccn1,-5.392
CNS(=O)(=O)c1ccc(CCC(=O)N(C)C)cc1,0.3586
NCCC1(O)CNC1,-1.696
Cc1ccncc1N1CCNCC1,-12.14
COCc1nc2n(n1)CCCC2NC1CCSCC1 (stereo not given),-3.945
Nc1nc2c(s1)Cc1ccccc1-2,-5.547
c1ccc(-c2n[nH]c(C3CCCNC3)n2)cc1 (stereo not given),-7.362
CN(C)CCC(O)c1ccccc1 (stereo not given),-5.626
O=C(CCN1CCCCC1)Nc1cccc2c1OCO2,37.42
CN1N=C(C(=O)NC2CCCc3occc32)CCC1=O (stereo not given),1.103
CCS(=O)(=O)N1CCCN(C(=O)NC(C)(C)C)CC1,8.081
Cc1n[nH]c(C2CCN(C(=O)c3cn[nH]c3)CC2)n1,2.773
O=C(NCC1CCN(C2CC2)C1)Nc1ccccn1 (stereo not given),-5.434
Cc1ncccc1NC(=O)c1cccc(S(C)(=O)=O)c1,-5.521
O=C(CN1CCC(O)CC1)N1CCCCCC1,5.873
CS(=O)(=O)c1ccc(NC(=O)NCc2ccco2)cn1,1.478
NCc1cccc(F)c1OC(F)F,-11
CC(C)N1CCC(NC(=O)c2ccoc2)CC1,-18.49
CC(Sc1nccn1C1CC1)C(=O)NC(N)=O (stereo not given),-15.84
CCCc1ccc(CN2CCOCC(CO)C2)o1 (stereo not given),13.89
O=C(CNc1ccccc1OC(F)F)N1CCNC1=O,1.091
Cc1ccoc1C(=O)N1CCCC(O)(CN(C)C)CC1 (stereo not given),-12.38
CCc1nccn1CCCNC(=O)Cc1nonc1C,3.782
O=C(C1CCCN(c2ccncc2Cl)C1)N1CCCC1 (stereo not given),-5.62
CS(=O)(=O)NC1CCN(C(=O)c2cncc(F)c2)CC1,7.949
CN(C(=O)c1ccc(F)c(Cl)c1)[C@H]1COC[C@@H]1O,1.158
COCCS(=O)(=O)NCC(C)(O)c1cccs1 (stereo not given),-3.706
CN(CC1CCOCC1)C(=O)c1sccc1S(N)(=O)=O,12.39
N#Cc1ccc(C(=O)NCCCc2csc(N)n2)cn1,3.81
C1CC(N2CCOCC2)CN1 (stereo not given),0.7876
CCC(=O)N1CCC(CCCN2CCOCC2)CC1,-4.595
CCc1noc(C)c1C(=O)NCCCN1CCOCC1,1.109
C1CC(C2CCOC2)CCN1 (stereo not given),0.8119
CN(C)C(CN)c1cccc(F)c1 (stereo not given),4.308
O=C1c2ccccc2CS(=O)(=O)N1Cc1ccccn1,-2.447
CC(C)Cc1noc(-c2ccc(N(C)CCO)nc2)n1,9.85
NS(=O)(=O)c1ccc2c(c1)N(CC(=O)NC1CC1)CC2,3.074
COc1cccc(S(=O)(=O)CCN2CCC(O)CC2)c1,-3.291
CC(C)CNC(=O)CSc1n[nH]c(-c2ccccn2)n1,52.47
CC(CC(=O)Nc1ccccc1)n1ccnc1 (stereo not given),-1.939
N#Cc1cc(Br)ccn1,-12.96
O=C(Nc1cccnc1N1CCC(CO)CC1)C1CC1,-6.961
CCOc1cccc(OCCCN2CCNCC2)c1,-17.97
Cc1ccccc1CNC(=O)CCNS(C)(=O)=O,5.152
CNC1CCN(S(=O)(=O)c2cccc(C(N)=O)c2)C1 (stereo not given),5.35
CSc1nnc(C)s1,19.51
COc1cccc(CNC(=O)[C@H]2C[C@@H](O)CN2)c1OC,15.99
Cn1cc(Br)c(CC#N)n1,14.5
CS(=O)(=O)NC1CNC1,14.92
CN(C)S(=O)(=O)c1ccc(O)cc1,-12.12
CN(C)c1ccc(C(=O)Nc2ccncc2)cc1,-1.047
CCN(Cc1cc2cc(C)ccc2nc1O)C(C)=O,6.039
CN(C)S(=O)(=O)N(CCO)Cc1ccc(Cl)c(Cl)c1,5.35
Nc1nc(N2CCCC2)n[nH]1,18.78
O=C(NCCc1nnc[nH]1)C1COc2ccc(Br)cc21 (stereo not given),-8.247
CN(C(=O)c1cccnc1O)C1CCS(=O)(=O)C1 (stereo not given),-0.6579
CNCC1CCCOC1 (stereo not given),4.242
CCc1nccn1C1CCCNC1 (stereo not given),1.961
CC(=O)N(Cc1noc(C)n1)C1CCNC1 (stereo not given),-6.066
OCCC1(O)CCOc2ccccc21 (stereo not given),1.153
CCCc1nc(C(=O)NCCS(=O)(=O)N(C)C)cs1,9.381
Cc1c(Cl)cccc1NC(=O)N[C@@H]1CNCC[C@H]1O,8.584
NCCC(=O)N1CCCC(CCc2ccc(F)cc2)C1 (stereo not given),62.64
CCC(CNC(=O)c1c[nH]nn1)Oc1ccccc1F (stereo not given),0.6495
CC(C)CC(=O)NCC(O)c1ccccc1F (stereo not given),2.145
CS(=O)(=O)NCc1cn2c(n1)CCCC2,-8.908
CCC(CC)C(=O)NCc1ccncc1,-0.3815
CN(C)C(=O)c1ccc2c(c1)CCCN2,1.631
Cc1cccc(CNC(=O)C2=COCCO2)c1Br,4.264
CC(C)CCNC(=O)Nc1ccc(S(C)(=O)=O)cc1,7.237
COc1cccc(S(=O)(=O)CCN2CCCC2CO)c1 (stereo not given),14.45
COc1ccc(C(=O)NC2CCC(O)CC2)c(F)c1 (stereo not given),-0.2844
NC1CCN(CC2CC2)C1 (stereo not given),1.221

For reference, 10 entries once more:

| structure | effect |
|---|---|
| `CCOc1ccc(NC(=O)[C@H](C)N(C)C)cc1CO` | 1.908 |
| `CN(C)CCC(O)c1ccccc1` (stereo not given) | -5.626 |
| `CC(Sc1nccn1C1CC1)C(=O)NC(N)=O` (stereo not given) | -15.84 |
| `CC(C)CNC(=O)CSc1n[nH]c(-c2ccccn2)n1` | 52.47 |
| `CN1N=C(C(=O)NC2CCCc3occc32)CCC1=O` (stereo not given) | 1.103 |
| `CN(C(=O)c1cccnc1O)C1CCS(=O)(=O)C1` (stereo not given) | -0.6579 |
| `N#Cc1ccc(C(=O)NCCCc2csc(N)n2)cn1` | 3.81 |
| `CCN1CC(C(=O)NCCC2=CCCCC2)CC1=O` (stereo not given) | -13.6 |
| `CN(C)C(=O)c1ccc2c(c1)CCCN2` | 1.631 |
| `Cc1ccoc1C(=O)N1CCCC(O)(CN(C)C)CC1` (stereo not given) | -12.38 |

From ChEMBL document CHEMBL3988442, “University of Dundee, Small-Polar-MMV Screening Library” (2021).